Patent publication US8182837B2, “Methods and compositions for reducing the risk associated with the administration of opioid analgesics in patients with diagnosed or undiagnosed respiratory illness” (QRxPharma Limited, priority 2003, dated 2012)
Where two headings read alike, the source gives them in different places.

Assays:
[1] = oral syrup, steady-state, 21 patients
[2] = oral syrup, steady-state

For CN1CC[C@]23c4c5ccc(O)c4O[C@H]2[C@@H](O)C=C[C@H]3[C@H]1C5 [Morphine, morphine], the “Dose (by weight) required for stabilized pain control” value [1] was 108 mg and the “Dose (by weight) required for stabilized pain control” value [2] was 68 mg.
